These are yes or no findings as the source states them, for the method shown. Binding seen in cells or lysates may run through a third protein. Some binding calls cover weakened binding; strength is not graded here.

Amino acid sequences for entries named in this document (tags omitted). A change or cut given only in a name is not applied to a line headed by its entry. Chains listed by the source or under a name are the forms on record and can include a tag or linker.
UniProt Q92847: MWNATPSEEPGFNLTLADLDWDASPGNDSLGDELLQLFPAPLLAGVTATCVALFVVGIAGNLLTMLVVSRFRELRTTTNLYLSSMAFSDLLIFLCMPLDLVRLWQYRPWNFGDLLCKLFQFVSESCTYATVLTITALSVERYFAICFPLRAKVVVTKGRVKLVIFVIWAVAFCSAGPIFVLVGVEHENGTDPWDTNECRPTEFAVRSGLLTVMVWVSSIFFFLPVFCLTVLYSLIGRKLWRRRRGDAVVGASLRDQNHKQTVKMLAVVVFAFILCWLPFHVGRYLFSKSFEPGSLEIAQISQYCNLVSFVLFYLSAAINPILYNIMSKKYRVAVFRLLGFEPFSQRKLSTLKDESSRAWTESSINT
GHSR1a-DM (double mutant Thr350Ala, Ser349Ala) fused at its C terminus to eYFP (Q92847, form named): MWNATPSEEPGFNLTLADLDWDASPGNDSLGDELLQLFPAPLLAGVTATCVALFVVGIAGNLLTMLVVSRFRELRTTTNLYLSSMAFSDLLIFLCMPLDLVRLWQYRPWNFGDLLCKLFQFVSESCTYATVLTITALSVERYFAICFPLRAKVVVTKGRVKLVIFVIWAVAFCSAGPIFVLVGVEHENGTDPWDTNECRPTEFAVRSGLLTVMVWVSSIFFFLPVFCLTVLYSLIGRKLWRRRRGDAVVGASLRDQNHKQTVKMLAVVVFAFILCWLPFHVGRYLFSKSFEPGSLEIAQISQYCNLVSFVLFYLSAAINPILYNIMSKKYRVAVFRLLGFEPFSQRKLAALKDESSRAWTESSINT

In assay [1] the target is GHSR1a-DM (double mutant Thr350Ala, Ser349Ala) fused at its C terminus to eYFP (UniProt Q92847). The experiment in a line: FRET or BRET; BRET titration in living HEK 293 cells; constant amount of Rluc-ß-arrestin (donor) and increasing amounts of YFP-GHSR1a-WT or YFP-GHSR1a-DM (acceptor), treated with ghrelin; net BRET as a function of acceptor/donor; BRET50 as relative affinity. On the technique in general: Bioluminescence resonance energy transfer reports proximity on the nanometre scale.

For assay [2], the target named is GHSR1a-WT fused at its C terminus to enhanced yellow fluorescent protein (eYFP) (UniProt Q92847). The description is as above.

With “ß-arrestin 2 tagged with Rluc at its C-terminus (from UniProt P32121 1-409)”, the binding result in assay [1] and in assay [2] was “binds” each time.

B1: Renilla luciferase-tagged ß-arrestin 1 (natural protein, UniProt P49407 1-418, looked up)
chain: MGDKGTRVFKKASPNGKLTVYLGKRDFVDHIDLVDPVDGVVLVDPEYLKERRVYVTLTCAFRYGREDLDVLGLTFRKDLFVANVQSFPPAPEDKKPLTRLQERLIKKLGEHAYPFTFEIPPNLPCSVTLQPGPEDTGKACGVDYEVKAFCAENLEEKIHKRNSVRLVIRKVQYAPERPGPQPTAETTRQFLMSDKPLHLEASLDKEIYYHGEPISVNVHVTNNTNKTVKKIKISVRQYADICLFNTAQYKCPVAMEEADDTVAPSSTFCKVYTLTPFLANNREKRGLALDGKLKHEDTNLASSTLLREGANREILGIIVSYKVKVKLVVSRGGLLGDLASSDVAVELPFTLMHPKPKEEPPHREVPENETPVDTNLIELDTNDDDIVFEDFARQRLKGMKDDKEEEEDGTGSPQLNNR
notes: plasmid provided by Prof; Mark Scott (Institut Cochin, Paris); also called Rluc-ß-arrestin 1; source: HEK 293, transiently co-transfected (Lipofectamine 2000), in living cells
For B1, the binding result in assay [1] and in assay [2] was “binds” each time.
